# Results published in patent publication US20050059615A1, “Transmucosal dosage forms for brain-targeted steroid chemical delivery systems” (priority 2003, published 2005).
# Test system: 2OHE1/16OHE1
# Experiment: Phase I clinical study: urinary estrone and 2OHE1/16OHE1
# Details: for amount of urinary 16OHE1 relative to day 1 (8-hour adjusted): end of treatment
compound,measurement,setting,value
"CN1C=CCC(C(=O)O[C@H]2CC[C@H]3[C@@H]4CCc5cc(O)ccc5[C@H]4CC[C@]23C)=C1 [E2-CDS, 17β-[(1-methyl-1,4-dihydro-3-pyridinyl)carbonyloxy]estra-1,3,5(10)-trien-3-ol]","difference of mean ratios, urine","day 10 minus day 1, Group A",0.15
same,"difference of mean ratios, urine","day 13 minus day 1, Group B",0.05
same,amount of urinary 16OHE1 relative to day 1 (8-hour adjusted),Group A,2.48 times
same,amount of urinary 16OHE1 relative to day 1 (8-hour adjusted),Group B,1.26 times
same,mean amount of urinary 2OHE1 relative to day 1 (adjusted to 8-hour collection),"last dosing day (day 10), Group A",4.46 times
same,mean amount of urinary 2OHE1 relative to day 1 (adjusted to 8-hour collection),"last dosing day (day 13), Group B",2.34 times
